Laboratory results as given in article doi:10.1101/2023.04.04.535523.
These are yes or no findings as the source states them, for the method shown.

Target: mCherry-PIF6 (N-terminal Cys residue) (A. thaliana) (UniProt Q8L5W7)
Experiment: SEC

Substance: mCherry-PIF6 (N-terminal Cys residue) (from UniProt Q8L5W7 1-100)
- binding: no binding
